According to PMC6599078:
Results are given in words; binding and its absence hold for the method and conditions named. For some of these results: In cells and extracts the contact can be indirect. Some results given as binding are weak or reduced against the parent protein; the word gives no strength. For some of these results: Where a sequence is shown, tags or fusion partners need not be part of it. Values belong to the molecule of their own block, whether it stands above or below them.

By UniProt entry, the sequences of proteins in these tests, tags left out. Residues count along the entry.
UniProt Q99835, residues 28-787: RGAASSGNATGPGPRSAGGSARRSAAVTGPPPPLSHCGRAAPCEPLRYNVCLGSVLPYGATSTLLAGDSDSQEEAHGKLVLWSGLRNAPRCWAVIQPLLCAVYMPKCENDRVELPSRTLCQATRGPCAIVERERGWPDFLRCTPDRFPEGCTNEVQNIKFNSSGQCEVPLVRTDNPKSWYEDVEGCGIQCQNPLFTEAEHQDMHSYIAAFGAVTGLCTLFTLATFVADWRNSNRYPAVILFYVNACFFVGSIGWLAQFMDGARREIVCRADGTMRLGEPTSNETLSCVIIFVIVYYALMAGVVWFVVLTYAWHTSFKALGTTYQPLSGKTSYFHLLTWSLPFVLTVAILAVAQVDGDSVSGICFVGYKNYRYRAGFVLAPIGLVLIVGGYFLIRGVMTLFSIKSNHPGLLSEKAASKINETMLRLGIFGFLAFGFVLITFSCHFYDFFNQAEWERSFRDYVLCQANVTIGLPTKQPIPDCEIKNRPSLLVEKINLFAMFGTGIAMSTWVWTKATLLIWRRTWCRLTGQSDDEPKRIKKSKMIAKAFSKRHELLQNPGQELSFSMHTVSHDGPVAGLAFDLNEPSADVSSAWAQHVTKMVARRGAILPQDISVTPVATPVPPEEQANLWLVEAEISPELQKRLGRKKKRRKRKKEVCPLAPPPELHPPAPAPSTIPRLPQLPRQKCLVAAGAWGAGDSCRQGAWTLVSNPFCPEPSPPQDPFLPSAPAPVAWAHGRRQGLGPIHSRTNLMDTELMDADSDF
UniProt P54252: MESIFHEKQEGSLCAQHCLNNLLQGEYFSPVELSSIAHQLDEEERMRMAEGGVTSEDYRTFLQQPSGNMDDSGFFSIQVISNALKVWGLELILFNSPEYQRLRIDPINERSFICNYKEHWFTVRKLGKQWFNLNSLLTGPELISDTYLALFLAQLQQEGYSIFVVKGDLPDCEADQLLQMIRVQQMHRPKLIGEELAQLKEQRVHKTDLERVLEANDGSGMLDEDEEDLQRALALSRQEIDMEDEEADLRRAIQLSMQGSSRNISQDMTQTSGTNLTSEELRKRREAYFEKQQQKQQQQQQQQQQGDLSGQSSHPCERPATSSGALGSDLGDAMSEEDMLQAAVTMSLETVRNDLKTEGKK
UniProt P25098: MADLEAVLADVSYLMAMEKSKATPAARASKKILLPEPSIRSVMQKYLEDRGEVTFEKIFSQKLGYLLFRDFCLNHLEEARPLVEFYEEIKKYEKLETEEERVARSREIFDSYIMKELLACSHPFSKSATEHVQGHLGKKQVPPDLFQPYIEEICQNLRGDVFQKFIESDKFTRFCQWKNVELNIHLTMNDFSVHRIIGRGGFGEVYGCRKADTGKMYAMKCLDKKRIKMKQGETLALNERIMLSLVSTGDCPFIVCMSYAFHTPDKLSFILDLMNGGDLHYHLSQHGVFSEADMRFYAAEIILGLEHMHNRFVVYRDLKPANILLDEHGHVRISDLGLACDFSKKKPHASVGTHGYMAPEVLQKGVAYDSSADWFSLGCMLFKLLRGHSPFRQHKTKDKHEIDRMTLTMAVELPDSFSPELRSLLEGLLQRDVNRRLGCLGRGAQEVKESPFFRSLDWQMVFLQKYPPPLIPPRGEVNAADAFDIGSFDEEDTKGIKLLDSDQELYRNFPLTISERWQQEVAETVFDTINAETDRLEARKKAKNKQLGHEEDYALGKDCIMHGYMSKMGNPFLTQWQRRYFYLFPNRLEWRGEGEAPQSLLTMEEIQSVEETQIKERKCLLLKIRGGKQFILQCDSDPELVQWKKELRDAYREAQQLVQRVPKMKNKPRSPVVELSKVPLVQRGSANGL

Tests used:
[1] = target: Flag-SMO (UniProt Q99835); test: co-IP; Flag-PTCH1 or Flag-SMO immunoprecipitated from MCF7 cells with or without TSPAN8 overexpression, with or without ATXN3 shRNA; cells treated with 100 ng/ml SHH for 6 h
[2] = target: T1, Flag-PTCH1 (UniProt Q13635); test: as above
T1 sequence: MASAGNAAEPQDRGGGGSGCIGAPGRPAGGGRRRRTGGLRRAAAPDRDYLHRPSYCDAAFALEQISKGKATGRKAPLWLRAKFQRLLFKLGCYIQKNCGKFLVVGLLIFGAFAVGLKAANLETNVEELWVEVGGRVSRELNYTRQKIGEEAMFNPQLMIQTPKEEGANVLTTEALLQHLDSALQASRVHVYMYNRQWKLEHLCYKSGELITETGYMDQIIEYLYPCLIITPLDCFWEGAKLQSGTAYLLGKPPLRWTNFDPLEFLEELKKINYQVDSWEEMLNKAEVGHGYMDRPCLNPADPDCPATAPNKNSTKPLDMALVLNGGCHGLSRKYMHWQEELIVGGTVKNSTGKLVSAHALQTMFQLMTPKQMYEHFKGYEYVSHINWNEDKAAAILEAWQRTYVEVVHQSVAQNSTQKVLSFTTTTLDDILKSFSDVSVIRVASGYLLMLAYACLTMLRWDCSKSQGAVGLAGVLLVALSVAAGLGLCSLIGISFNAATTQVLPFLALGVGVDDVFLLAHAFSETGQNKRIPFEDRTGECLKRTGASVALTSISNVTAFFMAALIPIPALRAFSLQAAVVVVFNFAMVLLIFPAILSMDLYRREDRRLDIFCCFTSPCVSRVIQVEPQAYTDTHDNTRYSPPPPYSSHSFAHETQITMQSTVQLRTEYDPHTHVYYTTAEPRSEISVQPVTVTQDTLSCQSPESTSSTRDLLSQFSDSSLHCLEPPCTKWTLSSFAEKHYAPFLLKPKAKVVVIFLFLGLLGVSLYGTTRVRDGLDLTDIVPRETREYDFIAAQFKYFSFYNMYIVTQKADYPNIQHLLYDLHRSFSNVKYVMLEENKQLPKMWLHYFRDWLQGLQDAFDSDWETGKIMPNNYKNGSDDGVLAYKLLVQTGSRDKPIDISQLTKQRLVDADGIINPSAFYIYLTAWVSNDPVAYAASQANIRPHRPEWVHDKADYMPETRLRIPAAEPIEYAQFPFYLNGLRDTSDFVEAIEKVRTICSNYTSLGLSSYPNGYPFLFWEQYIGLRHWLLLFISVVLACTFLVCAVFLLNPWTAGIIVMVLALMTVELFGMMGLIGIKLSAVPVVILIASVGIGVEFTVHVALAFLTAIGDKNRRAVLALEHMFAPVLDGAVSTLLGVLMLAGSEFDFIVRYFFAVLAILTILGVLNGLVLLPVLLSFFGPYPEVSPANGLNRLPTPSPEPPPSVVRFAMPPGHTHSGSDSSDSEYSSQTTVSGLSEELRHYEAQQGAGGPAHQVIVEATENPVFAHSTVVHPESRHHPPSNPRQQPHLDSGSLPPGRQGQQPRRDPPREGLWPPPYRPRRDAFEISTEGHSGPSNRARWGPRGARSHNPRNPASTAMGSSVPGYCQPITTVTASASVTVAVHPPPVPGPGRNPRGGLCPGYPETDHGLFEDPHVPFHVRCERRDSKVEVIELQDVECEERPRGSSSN

[3] = target: T2, TSPAN8 (immunoprecipitated for mass spectrometry and for the co-immunoprecipitation with ATXN3) (UniProt P19075); test: co-IP; co-immunoprecipitation of TSPAN8 and ATXN3 (Supplementary Fig. 4g-h); constructs and cells not stated
T2 sequence: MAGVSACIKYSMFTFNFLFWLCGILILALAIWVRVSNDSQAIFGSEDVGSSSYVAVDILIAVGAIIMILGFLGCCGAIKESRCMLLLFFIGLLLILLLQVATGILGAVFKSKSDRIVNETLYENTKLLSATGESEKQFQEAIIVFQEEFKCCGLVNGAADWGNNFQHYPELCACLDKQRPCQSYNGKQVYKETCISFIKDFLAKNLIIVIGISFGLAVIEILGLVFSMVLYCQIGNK

[4] = target: Flag-ATXN3 (UniProt P54252); test: co-IP; Flag-ATXN3 co-transfected with GFP or GFP-TSPAN8, or with control siRNA or TSPAN8 siRNA, in HEK293T cells (text: MCF-7 cells); immunoprecipitation and immunoblotting
[5] = target: T3, endogenous TSPAN8 (human (endogenous in MCF7)) (UniProt P19075); test: co-IP; MCF7 cell lysates immunoprecipitated with control rabbit IgG or anti-TSPAN8, immunoblotted with anti-SHH or anti-PTCH1; endogenous proteins
T3 sequence: T2 sequence

[6] = target: T4, HA-TSPAN8 (UniProt P19075); test: co-IP; co-immunoprecipitation of HA-TSPAN8 with SHH and PTCH1 (Supplementary Fig. 4a, b); cells lysed in RIPA buffer at 4 °C, magnetic beads 12 h at 4 °C; cell line not stated
T4 sequence: T2 sequence

[7] = target: GST-ATXN3 (UniProt P54252); test: pull-down; GST pulldown with purified GST-ATXN3 and His-TSPAN8 or His-PTCH1 (Supplementary Fig. 4i); both purified

- binding [1]: binds
- binding [2]: binds
Molecule: GRK2 protein kinase (from UniProt P25098 1-689) (enzyme)

- binding [3]: binds
Molecule: ATXN3 (found with immunoprecipitated TSPAN8) (from UniProt P54252 1-361) (enzyme)

- binding [4]: binds
B1: PTCH1 (found with Flag-ATXN3) (receptor, UniProt Q13635 1-1447)
chain: T1 sequence

- binding [5]: binds
B2: endogenous PTCH1 (receptor, UniProt Q13635 1-1447)
chain: T1 sequence

- binding [6]: binds
B3: PTCH1 (found with HA-TSPAN8) (receptor, UniProt Q13635 1-1447)
chain: T1 sequence

- binding [7]: binds
B4: His-TSPAN8 (protein, UniProt P19075 1-237)
chain: T2 sequence
